“And” between values parts separate entries of the source, which are not always exact repeats. Identical values can stand only once. This is one part of the list. Shown are side measurements of this screen, not its main read-out; they come without a call. The list favours compounds with an active or inconclusive main result. Words in brackets tell the shape of the fitted curve; partial curves, single points and poor fits give uncertain potencies.
Assay: qHTS Assay for Lipid Storage Modulators in Drosophila S3 Cells;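 on cell number change: cells counted by Cell Tracker Red CMTPX staining in the red channel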
Settings: BODIPY lipid droplet fluorescence, 18-24 h; for cell number change: measured here: cell count max response, cells fed with added oleic acid
Procedure, shortened: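 Drosophila S3 cells loaded with oleic acid (400 uM, as added) and compounds at several concentrations; lipid droplets imaged by 488-nm laser-scanning cytometry, 500–530 nm intensity and object ratio to cell channel. Percent activity normalized to 20 uM Triacsin C.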

[1] = measured here: lipid fluorescence (Fed channel) AC50, cells fed with added oleic acid
[2] = measured here: cell number channel AC50, cells fed with added oleic acid

Row | SMILES | cell number change | AC50 [1] | AC50 [2]
1 | COc1ccc(C(=O)N2CCc3cc(OC)c(OC)cc3C2c2ccc(OC)c(OC)c2)cc1 (stereo unspecified) | 13.9% | 29.1 µM [rising, single point] | 
2 | CC(=O)c1sc2nc(CSc3nncn3C)[nH]c(=O)c2c1C | 36.2% | 29.1 µM [rising, single point] | 
3 | COc1ccc(-n2c(CCc3ccccc3)n[nH]c2=S)cc1 | -42.1% |  | 
4 | CCOC(=O)C1CCCN(C(=O)c2ccc3[nH]c4c(c3c2)CC(C)CC4)C1 (stereo unspecified) | -18.2% | 20.6 µM [falling, single point] | 
5 | CC(C)(C)c1ccc(C(=O)NCC(=O)OCC(=O)NC(=O)NC2CCCC2)cc1 | 4.31% | 0.0231 µM [falling, full curve, poor fit] | 7.31 µM [falling, single point]
6 | O=C(CSc1cc(Cl)ccc1Cl)NC1CCCc2ccccc21 (stereo unspecified) |  | 2.91 µM [rising, partial curve, poor fit] | 
7 | COc1ccc(/C=N/Nc2nc(N3CCCC3)nc(N3CCCC3)n2)c(OC)c1OC | -8.89% | 6.51 µM [rising, partial curve] | 6.51 µM [rising, partial curve, poor fit]
8 | Cc1onc(-c2c(Cl)cccc2Cl)c1C(=O)N1CCCc2ccccc21 | 66.4% | 29.1 µM [rising, single point] | 29.1 µM [rising, single point]
9 | CCOc1c(Br)cc(Br)cc1/C=C1\SC(N)=NC1=O | -9.52% |  | 
10 | COc1ccccc1/C=C1\SC(=S)N(CCC(=O)NNC(=O)c2ccccc2O)C1=O | 14.7% | 20.6 µM [rising, single point] | 2.31 µM [rising, single point]
11 | Cc1cccc(CNc2ncnc3ccc(-c4ccc5c(c4)OCCO5)cc23)c1 | -31.4% and -12.2% | 18.4 µM [falling, partial curve] | 16.4 µM [falling, single point]
12 | O=C(Nc1cccnc1)c1cccc(S(=O)(=O)N2CCc3ccccc32)c1 | -30.1% | 0.326 µM [falling, full curve, poor fit] | 0.82 µM [falling, full curve, poor fit]
13 | N#Cc1c(NC(=O)CN2CCOCC2)oc(-c2ccccc2)c1-c1ccccc1 | -14.3% | 5.17 µM [rising, partial curve, poor fit] | 
14 | Cc1csc(NC(=O)CSc2nnc(-c3ccoc3C)n2CCc2ccccc2)n1 | -23.5% |  | 
15 | COc1ccc(N2CCN(C(=S)Nc3cccc(C)c3C)CC2)cc1 | 4.31% | 7.31 µM [rising, partial curve] | 
16 | COc1ccc(S(=O)(=O)N2CCCC(C(=O)N3CCN(C)CC3)C2)cc1Cl (stereo unspecified) | 3.17% | 32.6 µM [rising, single point] | 
17 | O=C(COc1ccc(Cl)cc1)Nc1nc(-c2ccc(S(=O)(=O)N3CCOCC3)cc2)cs1 | 12.8% |  | 
18 | CCOC(=O)N1CCC(NC(=O)c2ccc(CS(=O)c3ccc(Cl)cc3)o2)CC1 (stereo unspecified) | -1.21% |  | 
19 | O=C(CN1CCc2ccccc2C1)Nc1ccccc1C(F)(F)F | 5.83% | 29.1 µM [rising, single point] | 
20 | Cc1ccc(N2CC(C(=O)NCc3cccs3)CC2=O)cc1 (stereo unspecified) | 7.29% | 3.26 µM [falling, partial curve] | 

Row | SMILES | cell number change | AC50 [1] | AC50 [2]
21 | CCC1CCc2sc(C(=O)NCc3ccccn3)cc2C1 (stereo unspecified) | 24.1% | 29.1 µM [rising, single point] | 
22 | O=C(c1cccs1)N1CCN(Cc2ccccc2[N+](=O)[O-])CC1 | -0.0784% | 9.2 µM [rising, partial curve] | 
23 | CC(=O)c1cccc(CN2CCC(CO)(CCOc3ccccc3)CC2)c1 | 21% |  | 
24 | COc1ccc(OC)c(S(=O)(=O)Nc2ccc3[nH]c(=O)[nH]c3c2)c1 | 28.2% | 6.51 µM [rising, single point] | 
25 | COc1ccc(CN2CN=C(Nc3nc4ccccc4s3)NC2)cc1 | -4.52% | 6.51 µM [rising, full curve, poor fit] | 
26 | Cc1cccc(-c2ccc3ncnc(NCc4cccc(F)c4)c3c2)c1 | -41.2% |  | 6.51 µM [falling, full curve]
27 | CCCc1nnc(NC(=O)CN2CCN(C)CC2)s1 | 20.7% | 0.92 µM [falling, full curve] | 0.231 µM [falling, full curve, poor fit]
28 | Cc1ccc(S(=O)(=O)N2CCN(C(=O)CSc3ncn[nH]3)CC2)cc1 |  | 14.6 µM [falling, partial curve] | 
29 | COC(=O)c1cc(O)cc(OC)c1Oc1cc(C)cc(O)c1C(=O)O | -46.7% | 10.3 µM [falling, partial curve] | 11.6 µM [falling, partial curve]
30 | COc1ccccc1N1CCN(Cc2cc(OC)c3c(c2)OCO3)CC1 | -11.8% | 0.103 µM [falling, full curve, poor fit] | 
31 | CC(C)NC(=S)N/N=C/c1cc(Br)ccc1O | -33.9% | 8.2 µM [falling, partial curve, poor fit] | 18.4 µM [falling, partial curve, poor fit]
32 | CN(C)S(=O)(=O)c1cc(NC(=O)Cn2ccsc2=N)ccc1Cl | 2.96% | 0.116 µM [falling, full curve, poor fit] | 
33 | CN(C)CC(C)(C)CNC(C(=O)Nc1ccc(Cl)cc1C(F)(F)F)c1ccccc1 (stereo unspecified) |  | 2.06 µM [falling, partial curve] | 
34 | CCOC(=O)C1CCCN(C(=O)CN2C(=O)/C(=C/c3ccc(OC)cc3)Oc3ccccc32)C1 (stereo unspecified) | 22.5% | 1.03 µM [falling, single point] | 
35 | CN(CCOc1ccccc1)CC(=O)Nc1cccc(C#N)c1 | 23.9% | 0.58 µM [rising, single point] | 
36 | CC12CCC(=O)C=C1CCC1C2C(=O)CC2(C)C1CC[C@]2(O)C(=O)CO (stereo partly specified) |  |  | 0.58 µM [rising, single point]
37 | CC(=O)C1=C(O)C(=O)N(C)C1c1ccccc1[N+](=O)[O-] (stereo unspecified) | -4.44% | 7.31 µM [falling, full curve, poor fit] | 
38 | O=C(COC(=O)c1cc(-c2ccncc2)nc2ccccc12)Nc1ccc2c(c1)OCO2 | 14.6% | 20.6 µM [rising, single point] | 0.146 µM [falling, full curve, poor fit]
39 | COc1ccc(CCNC(=O)C/C(C)=N/NC(=O)COc2ccc(C)cc2Br)cc1OC | 21.8% | 6.51 µM [falling, partial curve, poor fit] | 
40 | COC(=O)c1ccc(NC(=S)NC(=O)c2cc(-c3ccccc3)nc3ccccc23)cc1 | 34% |  | 0.231 µM [rising, full curve, poor fit]

Row | SMILES | cell number change | AC50 [1] | AC50 [2]
41 | O=C(c1ccc(Cl)cc1)N1CCC(O)(CSc2ccc(Cl)cc2Cl)CC1 | -22.8% | 29.1 µM [falling, single point] | 
42 | COC(=O)c1ccc2c(c1)C(=O)/C(=C/c1ccc(O)cc1)O2 | 2.25% | 14.6 µM [rising, partial curve, poor fit] | 
43 | COc1ccccc1-c1ocnc1C(=O)N1CCN(S(=O)(=O)c2ccc(NC(C)=O)cc2)CC1 | 14.2% | 2.91 µM [falling, partial curve] | 
44 | Cn1ccnc1SCC(=O)Nc1ccc2c(c1)OCO2 | -57.7% |  | 
45 | CCOC(=O)CSc1nnc(CNC(=O)c2ccc(S(=O)(=O)N3CCCC3)cc2)n1C | -74.9% | 29.1 µM [falling, partial curve] | 29.1 µM [falling, single point]
46 | COc1ccccc1NC(=O)c1ccccc1-c1nc(-c2ccccc2OC)no1 |  | 0.58 µM [rising, single point] | 
47 | Cc1ccccc1C(=O)NC=C1C(=O)OC(C)(C)OC1=O | -21% |  | 6.51 µM [rising, single point]
48 | Cc1ccc(SCC(=O)c2sc(-c3ccccc3)nc2C)cc1 | -3.9% | 0.58 µM [rising, single point] | 
49 | C/C=C(\C)CN1CCN(c2ccccc2)CC1 | 3.11% | 4.11 µM [falling, single point] | 
50 | O=C(Nc1ccc(Cl)c(Cl)c1)N(CCCN1CCOCC1)Cc1cccs1 | 20.5% | 29.1 µM [rising, single point] | 
51 | COc1ccc(C(=O)c2sc(Nc3ccccc3)nc2N)cc1OC | -26.2% |  | 
52 | C=CCC1(CC=C)CCCN1C(=O)c1cc(COc2ccc(-n3cncn3)cc2)on1 | -32.8% | 29.1 µM [falling, single point] | 29.1 µM [falling, single point]
53 | Cc1ccc(S(=O)(=O)Nc2ccc(C(=O)N3CCOCC3)cc2)cc1 | 14.1% | 29.1 µM [rising, single point] | 
54 | CNS(=O)(=O)c1ccc(C)cc1 | -8.05% |  | 6.51 µM [falling, single point]
55 | O=C(NCc1cccs1)c1cc2c(s1)-c1ccccc1OC2 | 0.142% |  | 
56 | O=C1/C(=C/c2cccs2)CCC/C1=C\c1cccs1 | -19.5% | 16.4 µM [falling, single point] | 
57 | C=CCN1C(=O)C(Cc2ccc(SC(F)F)cc2)SC1=Nc1ccc(C(=O)O)cc1 (stereo unspecified) | -8.25% | 2.91 µM [rising, single point] | 
58 | COC(=O)c1ccc(N2CCOCC2)c(NC(=O)c2ccc(Br)o2)c1 | -10.3% | 1.64 µM [falling, partial curve, poor fit] | 
59 | c1cncc(CNc2ccc3c(c2)OCO3)c1 |  | 0.58 µM [rising, full curve] | 0.366 µM [rising, partial curve, poor fit]

Reference: PubChem BioAssay AID2685 (National Center for Advancing Translational Sciences (NCATS), 2010)
